According to PMC10743781:
No constants are given. Whether binding was seen depends on the method and setting. In cells and extracts the contact can be indirect. For some of these results: A result given as binding can be weak or reduced; the word gives no strength. Tags and fused reporters may be left off the sequences shown.

Experiments:
Assay in all cases: pull-down; HEK293T cotransfected with GST or GST-BAG5 constructs and HA-Akt, HA-Erk, EGFP-Akt-KDD or EGFP-Hsp70; TNTE lysate, glutathione Sepharose 4B beads 2 h at 4 °C, blots with anti-HA or anti-GFP; for the Hsp70 experiment cells 12 h in serum-free media, then 20 μM MG132 for 4 h
[1] = target: T1, GST-BAG5 (full-length BAG5 fused to GST) (human) (UniProt Q9UL15)
T1 sequence: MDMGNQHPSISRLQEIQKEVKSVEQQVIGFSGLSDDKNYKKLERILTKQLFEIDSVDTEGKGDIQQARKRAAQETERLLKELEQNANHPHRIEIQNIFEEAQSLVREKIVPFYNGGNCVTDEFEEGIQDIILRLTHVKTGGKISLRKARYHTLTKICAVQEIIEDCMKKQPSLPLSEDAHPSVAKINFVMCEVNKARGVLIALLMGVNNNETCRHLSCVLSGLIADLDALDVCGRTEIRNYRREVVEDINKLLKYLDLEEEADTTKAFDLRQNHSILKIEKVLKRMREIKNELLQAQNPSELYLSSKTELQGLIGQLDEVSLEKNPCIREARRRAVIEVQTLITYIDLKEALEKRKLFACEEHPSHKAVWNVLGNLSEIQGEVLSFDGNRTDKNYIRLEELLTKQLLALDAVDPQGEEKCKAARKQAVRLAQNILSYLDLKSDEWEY

[2] = target: T2, GST-BAG5 N87-Y447 (linker region extended to the carboxyl terminus, with the last three BAG domains) (human) (UniProt Q9UL15)
T2 sequence: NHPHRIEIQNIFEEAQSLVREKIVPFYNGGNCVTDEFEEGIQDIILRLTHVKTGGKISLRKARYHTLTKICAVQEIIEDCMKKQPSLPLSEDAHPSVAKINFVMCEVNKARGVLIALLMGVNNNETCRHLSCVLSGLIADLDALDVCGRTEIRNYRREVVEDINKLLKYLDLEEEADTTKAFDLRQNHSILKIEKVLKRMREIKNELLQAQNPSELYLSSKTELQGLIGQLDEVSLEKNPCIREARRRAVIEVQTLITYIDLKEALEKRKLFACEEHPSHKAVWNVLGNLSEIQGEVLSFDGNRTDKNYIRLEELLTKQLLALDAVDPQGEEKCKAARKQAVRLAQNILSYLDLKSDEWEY

[3] = target: T3, GST-BAG5(N87-P181), BAG5 linker region fused to GST (human) (UniProt Q9UL15)
T3 sequence: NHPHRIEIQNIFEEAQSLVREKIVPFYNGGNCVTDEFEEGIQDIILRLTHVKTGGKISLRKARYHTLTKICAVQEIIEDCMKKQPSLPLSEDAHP

[4] = target: T4, GST-BAG5 M1-P181 (linker region extended to the amino terminus, with the first BAG domain) (human) (UniProt Q9UL15)
T4 sequence: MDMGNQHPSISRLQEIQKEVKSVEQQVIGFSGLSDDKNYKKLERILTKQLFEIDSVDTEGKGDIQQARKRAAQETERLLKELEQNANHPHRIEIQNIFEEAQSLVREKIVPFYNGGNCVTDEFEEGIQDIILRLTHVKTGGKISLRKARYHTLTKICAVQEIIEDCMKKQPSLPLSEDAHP

| binding [1] | binding [2] | binding [3] | binding [4] | Substance |
| --- | --- | --- | --- | --- |
| binds |  |  |  | EGFP-Hsp70 |
|  | no binding | no binding | no binding | HA-Erk (HA-tagged Erk) (enzyme) |
